In patent US20240255529A1, “NOVEL ASSAY AND NOVEL METHODS OF TREATING AGING-RELATED CONDITIONS” (The Progeria Research Foundation, priority 2021, published 2024):

Test system: progerin
Assay: Lonafarnib interference assay (HGPS plasma spiked with lonafarnib, SMC progerin immunoassay)
Set-up: species or system human
Conditions: HGPS plasma spiked with 7.92 μg/mL lonafarnib (3×Cmax) in DMSO; p=0.198

## NC(=O)N1CCC(CC(=O)N2CCC([C@H]3c4ncc(Br)cc4CCc4cc(Cl)cc(Br)c43)CC2)CC1 [lonafarnib]
  interference of lonafarnib with progerin detection (mean progerin vs DMSO control): did not interfere
